Measurements: the supplement of paper PMC10849652
The list shows a part of the results.

Chains of the proteins cited; added tags and fusions are not shown. Lines headed by an entry give the natural chain unless they say otherwise; changes in a name come on top.
UniProt Q9HAW4: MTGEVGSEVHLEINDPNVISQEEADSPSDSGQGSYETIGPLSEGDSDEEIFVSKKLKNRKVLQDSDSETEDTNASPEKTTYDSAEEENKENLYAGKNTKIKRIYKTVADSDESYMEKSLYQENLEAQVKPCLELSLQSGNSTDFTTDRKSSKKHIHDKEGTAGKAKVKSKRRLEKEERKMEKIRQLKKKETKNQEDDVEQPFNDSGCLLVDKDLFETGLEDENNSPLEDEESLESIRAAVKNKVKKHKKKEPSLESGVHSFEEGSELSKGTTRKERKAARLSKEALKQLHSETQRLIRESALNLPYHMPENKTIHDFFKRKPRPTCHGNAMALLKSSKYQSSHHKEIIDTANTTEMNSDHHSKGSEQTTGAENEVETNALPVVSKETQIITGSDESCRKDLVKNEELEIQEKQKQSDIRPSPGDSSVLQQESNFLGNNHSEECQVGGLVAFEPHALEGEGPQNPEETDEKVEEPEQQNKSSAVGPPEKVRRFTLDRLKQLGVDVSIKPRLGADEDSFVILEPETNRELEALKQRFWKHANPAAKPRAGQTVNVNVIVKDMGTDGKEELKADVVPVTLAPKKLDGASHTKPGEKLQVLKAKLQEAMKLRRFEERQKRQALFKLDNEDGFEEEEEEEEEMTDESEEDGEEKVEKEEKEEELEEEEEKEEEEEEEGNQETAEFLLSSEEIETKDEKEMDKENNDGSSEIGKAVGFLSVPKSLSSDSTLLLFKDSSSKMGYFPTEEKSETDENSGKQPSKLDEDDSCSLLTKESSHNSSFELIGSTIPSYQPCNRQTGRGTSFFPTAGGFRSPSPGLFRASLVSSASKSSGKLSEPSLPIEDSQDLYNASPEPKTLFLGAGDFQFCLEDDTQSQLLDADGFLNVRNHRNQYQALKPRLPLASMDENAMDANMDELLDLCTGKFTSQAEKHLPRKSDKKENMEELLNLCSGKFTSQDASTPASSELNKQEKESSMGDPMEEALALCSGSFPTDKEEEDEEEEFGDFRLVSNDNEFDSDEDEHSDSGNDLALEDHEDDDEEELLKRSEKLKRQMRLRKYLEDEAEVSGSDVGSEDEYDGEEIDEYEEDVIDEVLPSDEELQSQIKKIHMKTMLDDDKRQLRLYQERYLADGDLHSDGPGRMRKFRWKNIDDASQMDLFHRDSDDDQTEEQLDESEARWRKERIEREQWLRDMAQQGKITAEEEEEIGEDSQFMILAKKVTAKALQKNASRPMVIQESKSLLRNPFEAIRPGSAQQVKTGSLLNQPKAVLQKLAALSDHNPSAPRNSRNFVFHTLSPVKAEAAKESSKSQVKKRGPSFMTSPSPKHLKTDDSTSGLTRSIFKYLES
UniProt Q9NRG0: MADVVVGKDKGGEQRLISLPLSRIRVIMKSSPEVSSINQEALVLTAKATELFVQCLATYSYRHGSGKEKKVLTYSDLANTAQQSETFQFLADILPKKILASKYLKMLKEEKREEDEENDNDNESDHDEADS
UniProt Q9BT09: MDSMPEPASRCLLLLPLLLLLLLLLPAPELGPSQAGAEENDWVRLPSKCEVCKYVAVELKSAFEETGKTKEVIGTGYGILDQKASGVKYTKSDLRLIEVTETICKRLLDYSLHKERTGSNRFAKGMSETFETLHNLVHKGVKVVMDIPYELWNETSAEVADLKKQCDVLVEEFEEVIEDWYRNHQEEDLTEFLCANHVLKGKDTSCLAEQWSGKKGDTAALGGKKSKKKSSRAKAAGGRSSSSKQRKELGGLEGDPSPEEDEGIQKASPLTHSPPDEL
UniProt P12277: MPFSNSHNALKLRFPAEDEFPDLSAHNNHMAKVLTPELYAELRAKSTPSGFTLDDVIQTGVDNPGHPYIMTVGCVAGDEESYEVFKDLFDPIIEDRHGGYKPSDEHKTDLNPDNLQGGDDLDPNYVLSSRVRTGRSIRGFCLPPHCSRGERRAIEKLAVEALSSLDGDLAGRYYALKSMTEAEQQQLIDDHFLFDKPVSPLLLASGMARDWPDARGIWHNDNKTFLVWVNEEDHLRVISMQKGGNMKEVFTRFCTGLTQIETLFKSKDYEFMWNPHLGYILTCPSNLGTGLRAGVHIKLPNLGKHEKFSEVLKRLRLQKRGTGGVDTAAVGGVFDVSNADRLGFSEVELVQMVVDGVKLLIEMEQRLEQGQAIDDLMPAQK
UniProt Q9H9A5, whole entry, looked up: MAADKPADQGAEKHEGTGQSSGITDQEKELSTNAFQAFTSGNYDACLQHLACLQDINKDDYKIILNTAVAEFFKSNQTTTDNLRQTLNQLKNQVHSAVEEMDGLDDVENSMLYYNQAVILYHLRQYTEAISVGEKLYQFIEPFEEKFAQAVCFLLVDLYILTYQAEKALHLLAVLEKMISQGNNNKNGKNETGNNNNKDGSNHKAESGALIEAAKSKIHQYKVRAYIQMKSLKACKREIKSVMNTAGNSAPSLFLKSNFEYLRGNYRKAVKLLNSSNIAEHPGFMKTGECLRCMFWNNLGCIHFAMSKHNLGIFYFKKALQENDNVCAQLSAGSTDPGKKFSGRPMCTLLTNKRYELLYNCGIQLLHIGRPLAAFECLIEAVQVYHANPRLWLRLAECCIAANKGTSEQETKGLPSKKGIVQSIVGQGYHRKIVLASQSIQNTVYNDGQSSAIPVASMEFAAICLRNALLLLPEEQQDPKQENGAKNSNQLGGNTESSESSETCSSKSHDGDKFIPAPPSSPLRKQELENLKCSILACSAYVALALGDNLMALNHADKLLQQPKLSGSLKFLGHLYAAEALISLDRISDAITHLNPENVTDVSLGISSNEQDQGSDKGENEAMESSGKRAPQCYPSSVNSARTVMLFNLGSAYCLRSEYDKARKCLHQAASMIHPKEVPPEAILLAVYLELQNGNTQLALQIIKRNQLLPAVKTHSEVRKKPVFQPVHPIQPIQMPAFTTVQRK
UniProt O96005: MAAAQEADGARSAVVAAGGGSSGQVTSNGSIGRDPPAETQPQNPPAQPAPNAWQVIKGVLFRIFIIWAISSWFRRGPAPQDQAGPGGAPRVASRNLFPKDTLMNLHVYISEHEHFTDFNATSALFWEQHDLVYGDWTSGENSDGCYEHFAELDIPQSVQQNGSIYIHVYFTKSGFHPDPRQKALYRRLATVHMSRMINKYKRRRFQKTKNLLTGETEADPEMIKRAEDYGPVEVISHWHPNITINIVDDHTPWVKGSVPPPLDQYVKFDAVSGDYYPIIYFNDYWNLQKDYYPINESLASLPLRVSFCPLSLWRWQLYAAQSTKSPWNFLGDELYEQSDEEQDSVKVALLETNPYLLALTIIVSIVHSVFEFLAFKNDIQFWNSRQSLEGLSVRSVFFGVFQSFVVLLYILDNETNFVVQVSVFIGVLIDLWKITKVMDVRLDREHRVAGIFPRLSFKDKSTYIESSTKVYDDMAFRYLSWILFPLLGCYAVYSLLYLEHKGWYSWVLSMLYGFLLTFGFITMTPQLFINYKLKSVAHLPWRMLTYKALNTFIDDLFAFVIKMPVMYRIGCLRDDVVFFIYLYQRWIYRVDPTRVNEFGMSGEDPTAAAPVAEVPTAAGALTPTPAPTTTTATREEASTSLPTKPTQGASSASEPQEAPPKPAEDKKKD
UniProt Q9H078: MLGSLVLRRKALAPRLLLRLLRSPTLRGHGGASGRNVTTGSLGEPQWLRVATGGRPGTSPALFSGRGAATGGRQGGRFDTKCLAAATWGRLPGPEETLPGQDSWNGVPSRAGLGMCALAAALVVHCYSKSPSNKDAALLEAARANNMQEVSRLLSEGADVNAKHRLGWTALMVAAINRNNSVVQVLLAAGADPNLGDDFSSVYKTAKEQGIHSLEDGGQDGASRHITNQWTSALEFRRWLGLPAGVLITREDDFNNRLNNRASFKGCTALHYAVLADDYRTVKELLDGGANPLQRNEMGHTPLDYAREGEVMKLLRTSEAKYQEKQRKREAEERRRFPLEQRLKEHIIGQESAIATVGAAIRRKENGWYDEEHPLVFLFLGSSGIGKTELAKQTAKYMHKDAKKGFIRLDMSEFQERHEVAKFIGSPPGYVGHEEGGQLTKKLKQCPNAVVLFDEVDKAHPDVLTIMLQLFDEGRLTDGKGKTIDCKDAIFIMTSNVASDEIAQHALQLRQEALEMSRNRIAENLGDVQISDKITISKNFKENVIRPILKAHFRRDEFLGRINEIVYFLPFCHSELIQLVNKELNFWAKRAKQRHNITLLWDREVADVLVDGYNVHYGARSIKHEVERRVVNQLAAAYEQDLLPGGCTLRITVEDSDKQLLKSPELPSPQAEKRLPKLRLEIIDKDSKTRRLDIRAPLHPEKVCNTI
UniProt Q92600, whole entry, looked up: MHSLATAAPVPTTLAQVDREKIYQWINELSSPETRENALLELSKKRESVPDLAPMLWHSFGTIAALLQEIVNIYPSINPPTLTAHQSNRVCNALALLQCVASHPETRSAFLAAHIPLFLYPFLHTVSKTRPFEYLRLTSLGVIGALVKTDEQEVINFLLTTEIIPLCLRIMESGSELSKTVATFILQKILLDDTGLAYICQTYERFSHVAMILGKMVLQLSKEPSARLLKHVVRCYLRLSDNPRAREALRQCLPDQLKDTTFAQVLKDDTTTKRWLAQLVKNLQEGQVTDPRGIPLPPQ
UniProt P61024, whole entry, looked up: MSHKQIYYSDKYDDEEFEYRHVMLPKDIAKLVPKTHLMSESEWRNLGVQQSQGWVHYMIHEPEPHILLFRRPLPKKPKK
UniProt O75122: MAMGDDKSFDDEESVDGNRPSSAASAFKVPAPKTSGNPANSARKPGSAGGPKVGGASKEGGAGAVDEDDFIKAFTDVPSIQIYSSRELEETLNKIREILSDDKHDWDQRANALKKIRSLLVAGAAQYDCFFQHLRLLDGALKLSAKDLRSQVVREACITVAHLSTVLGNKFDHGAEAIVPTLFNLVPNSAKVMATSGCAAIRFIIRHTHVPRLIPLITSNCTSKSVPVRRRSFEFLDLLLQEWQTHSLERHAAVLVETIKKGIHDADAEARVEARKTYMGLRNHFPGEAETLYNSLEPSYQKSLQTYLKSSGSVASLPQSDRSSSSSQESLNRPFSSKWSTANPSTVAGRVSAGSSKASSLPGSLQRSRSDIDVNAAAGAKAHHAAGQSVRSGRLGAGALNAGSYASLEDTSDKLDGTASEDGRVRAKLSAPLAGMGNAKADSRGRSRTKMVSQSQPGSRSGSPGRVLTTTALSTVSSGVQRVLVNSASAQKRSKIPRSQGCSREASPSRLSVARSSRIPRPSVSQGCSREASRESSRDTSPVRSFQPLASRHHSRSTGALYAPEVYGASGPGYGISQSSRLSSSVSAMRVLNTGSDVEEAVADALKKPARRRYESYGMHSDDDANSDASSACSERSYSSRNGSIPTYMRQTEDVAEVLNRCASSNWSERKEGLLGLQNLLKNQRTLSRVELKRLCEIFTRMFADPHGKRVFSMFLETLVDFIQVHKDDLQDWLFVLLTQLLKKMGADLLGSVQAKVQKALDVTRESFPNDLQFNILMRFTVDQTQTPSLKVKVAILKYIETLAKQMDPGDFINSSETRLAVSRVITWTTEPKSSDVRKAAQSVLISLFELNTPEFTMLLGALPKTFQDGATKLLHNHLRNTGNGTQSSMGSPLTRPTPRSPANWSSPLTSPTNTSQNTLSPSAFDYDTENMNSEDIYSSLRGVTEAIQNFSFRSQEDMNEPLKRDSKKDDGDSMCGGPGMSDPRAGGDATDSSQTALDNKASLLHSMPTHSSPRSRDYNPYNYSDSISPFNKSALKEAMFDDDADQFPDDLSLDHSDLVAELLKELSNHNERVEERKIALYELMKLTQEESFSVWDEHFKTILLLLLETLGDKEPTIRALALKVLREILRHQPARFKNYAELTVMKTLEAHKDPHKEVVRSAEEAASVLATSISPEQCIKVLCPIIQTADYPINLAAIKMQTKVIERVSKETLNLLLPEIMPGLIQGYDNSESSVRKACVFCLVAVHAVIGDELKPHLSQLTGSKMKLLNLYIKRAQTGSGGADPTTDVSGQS
UniProt Q14677: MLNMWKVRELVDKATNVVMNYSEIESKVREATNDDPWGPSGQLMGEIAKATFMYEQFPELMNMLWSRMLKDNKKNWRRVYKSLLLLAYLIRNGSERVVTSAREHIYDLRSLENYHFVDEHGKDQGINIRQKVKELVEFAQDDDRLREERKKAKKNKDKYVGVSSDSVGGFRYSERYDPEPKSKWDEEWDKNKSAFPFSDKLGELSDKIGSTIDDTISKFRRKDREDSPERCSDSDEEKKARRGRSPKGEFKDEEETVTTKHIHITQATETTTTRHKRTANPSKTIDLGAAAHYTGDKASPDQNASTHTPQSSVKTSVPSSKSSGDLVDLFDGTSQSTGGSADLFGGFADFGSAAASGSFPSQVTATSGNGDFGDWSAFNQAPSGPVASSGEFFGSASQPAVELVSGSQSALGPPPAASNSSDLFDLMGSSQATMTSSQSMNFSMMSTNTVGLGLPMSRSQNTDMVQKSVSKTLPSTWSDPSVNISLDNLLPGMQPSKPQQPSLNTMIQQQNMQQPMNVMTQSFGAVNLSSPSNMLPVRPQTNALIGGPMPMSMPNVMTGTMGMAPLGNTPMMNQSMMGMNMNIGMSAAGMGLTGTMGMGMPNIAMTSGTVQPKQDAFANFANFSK

What was measured:
Experiment in all cases: log2 fold change, soluble protein after heating vs DMSO (PISA); higher = thermal stabilisation; K562 cells, 10 uM, 30 min; active = over 0.2 and 3.5 SD of the protein, either way, in both replicates (recomputed)
[1] = compound: Cc1ccc(NC(=O)c2ccc(CN3CC[C@H](N(C)C)C3)c(C(F)(F)F)c2)cc1Nc1nccc(-c2cncnc2)n1 [bafetinib]
Outline: (§1)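 K562 cells at 2×10^6 cells/mL were treated with 10 μM compound for 30 min. Aliquots were heated for 3 min across 48°C-58°C, pooled, and extracted in PBS with 0.5% NP-40 at 4°C; soluble protein was the supernatant after 21,000xg for 90 min. Soluble protein was quantified by TMTpro 16plex LC-MS/MS with channel sums equalised, and reported as log2 fold change in thermal stability against DMSO controls, with values from duplicates.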

[2] = compound: Cc1cccc(CC(=O)N2CCc3c2ccc(-c2cn(C)c4ncnc(N)c24)c3F)n1
Outline: as §1

[3] = compound: Cc1cn(-c2cc(NC(=O)c3ccc(C)c(Nc4nccc(-c5cccnc5)n4)c3)cc(C(F)(F)F)c2)cn1 [nilotinib]
Outline: as §1

[4] = compound: Cc1nc(Nc2n[nH]c3c2CN(C(=O)N[C@H](CN(C)C)c2ccccc2)C3(C)C)c2sccc2n1
Outline: as §1

[5] = compound: Cc1nc(Nc2ncc(C(=O)Nc3c(C)cccc3Cl)s2)cc(N2CCN(CCO)CC2)n1 [dasatinib]
Outline: as §1

[6] = compound: Cc1ncc(-c2ccnc(Nc3ccc(S(C)(=O)=O)cc3)n2)n1C(C)C
Outline: as §1

[7] = compound: Cn1cc(-c2ccc3c(c2)CCN3C(=O)Cc2cccc(C(F)(F)F)c2)c2c(N)ncnc21
Outline: as §1

[8] = compound: Cn1cc(-c2ccc3nnc(C(F)(F)c4ccc5ncccc5c4)n3n2)cn1
Outline: as §1

[9] = compound: Cn1cncc1[C@@](N)(c1ccc(Cl)cc1)c1ccc2c(c1)c(-c1cccc(Cl)c1)cc(=O)n2C [tipifarnib]
Outline: as §1

[10] = compound: FC(F)(F)c1ccc(/C=C/c2nc(COc3ccc(CCCCn4ccnn4)cc3)co2)cc1 [mubritinib]
Outline: as §1

[11] = compound: NC(=O)Nc1cc(-c2cccc(F)c2)sc1C(=O)N[C@H]1CCCNC1
Outline: as §1

[12] = compound: NC(=O)c1cnc(N[C@@H]2CCCC[C@@H]2N)nc1Nc1cccc(-n2nccn2)c1
Outline: as §1

[13] = compound: NC1(c2ccc(-c3nc4ccn5c(=O)[nH]nc5c4cc3-c3ccccc3)cc2)CCC1
Outline: as §1

[14] = compound: NCC(=O)Nc1ccc(-n2nc(C(F)(F)F)cc2-c2ccc3c(ccc4ccccc43)c2)cc1
Outline: as §1

[15] = compound: Nc1ccccc1NC(=O)c1ccc(CNC(=O)OCc2cccnc2)cc1 [entinostat]
Outline: as §1

[16] = compound: O=C(CCCCCCC(=O)Nc1ccccc1)NO [vorinostat]
Outline: as §1

[17] = compound: O=C(CCCCCCNC(=O)c1cnc(N(c2ccccc2)c2ccccc2Cl)nc1)NO [citarinostat]
Outline: as §1

[18] = compound: O=C(O)c1ccc2c(c1)nc(Nc1cccc(Cl)c1)c1ccncc12 [silmitasertib]
Outline: as §1

[19] = compound: O=C1NC(=O)C(c2cnc3ccccn23)=C1c1cn2c3c(cc(F)cc13)CN(C(=O)N1CCCCC1)CC2
Outline: as §1

[20] = compound: c1cc(OCCN2CCCCC2)cc(-c2n[nH]c3ccc(-c4nnc[nH]4)cc23)c1
Outline: as §1

Target | log2 fold change [1] | log2 fold change [2] | log2 fold change [3] | log2 fold change [4] | log2 fold change [5] | log2 fold change [6] | log2 fold change [7] | log2 fold change [8] | log2 fold change [9] | log2 fold change [10] | log2 fold change [11] | log2 fold change [12] | log2 fold change [13] | log2 fold change [14] | log2 fold change [15] | log2 fold change [16] | log2 fold change [17] | log2 fold change [18] | log2 fold change [19] | log2 fold change [20]
CLSPN (UniProt Q9HAW4) | inactive: -0.071 | inactive: -0.035 | inactive: 0.018 | inactive: -0.011 | inactive: 0.094 | inactive: -0.123 | inactive: -0.021 | inactive: -0.03 | inactive: 0.045 | inactive: 0.053 | inactive: -0.015 | inactive: -0.009 | inactive: -0.003 | inactive: -0.013 | inactive: -0.048 | inactive: -0.028 | inactive: 0.026 | inactive: 0.053 | inactive: -0.062 | inactive: -0.086
CHRAC1 (UniProt Q9NRG0) | inactive: 0.061 | inactive: 0.067 | inactive: -0.017 | inactive: -0.047 | inactive: -0.01 | inactive: 0.035 | inactive: 0.038 | inactive: -0.021 | inactive: -0.056 | inactive: 0.05 | inactive: 0.02 | inactive: -0.055 | inactive: -0.071 | inactive: -0.058 | inactive: 0.06 | inactive: 0.08 | inactive: 0.109 | inactive: 0.015 | inactive: 0.017 | inactive: 0.042
CNOT6L (UniProt Q96LI5) | inactive: 0.068 | inactive: 0.03 | inactive: -0.036 | inactive: 0.003 | inactive: -0.12 | inactive: -0.069 | inactive: -0.008 | inactive: 0.044 | inactive: 0.349 | inactive: 0.055 | inactive: -0.003 | inactive: 0.028 | inactive: 0.051 | inactive: -0.133 | inactive: -0.061 | inactive: -0.04 | inactive: 0.141 | inactive: -0.012 | inactive: 0.098 | inactive: 0.008
CNPY3 (UniProt Q9BT09) | inactive: -0.076 | inactive: -0.072 | inactive: -0.013 | inactive: 0.016 | inactive: 0.01 | inactive: -0.047 | inactive: 0.021 | inactive: 0.015 | inactive: 0.002 | inactive: 0.002 | inactive: -0.03 | inactive: -0.039 | inactive: 0.017 | inactive: -0.05 | inactive: -0.015 | inactive: -0.042 | inactive: 0 | inactive: 0.005 | inactive: -0.053 | inactive: -0.025
CKB (UniProt P12277) | inactive: 0.02 | inactive: 0.02 | inactive: 0.051 | inactive: 0.037 | inactive: -0.142 | inactive: -0.008 | inactive: 0.081 | inactive: 0.01 | inactive: -0.057 | inactive: 0.062 | inactive: -0.035 | inactive: -0.02 | inactive: -0.117 | inactive: -0.033 | inactive: -0.001 | inactive: -0.023 | inactive: -0.046 | inactive: -0.117 | inactive: -0.04 | inactive: -0.018
CNOT10 isoform 6 (UniProt Q9H9A5) | inactive: 0.023 | inactive: 0.051 | inactive: -0.013 | inactive: 0.017 | inactive: -0.024 | inactive: -0.082 | inactive: -0.059 | inactive: -0.015 | inactive: 0 | inactive: 0.004 | inactive: 0.004 | inactive: -0.067 | inactive: -0.027 | inactive: -0.009 | inactive: 0.016 | inactive: 0.05 | inactive: 0 | inactive: 0.057 | inactive: 0.032 | inactive: -0.029
CLPTM1 (UniProt O96005) | inactive: -0.004 | inactive: 0.011 | inactive: -0.007 | inactive: 0.048 | inactive: 0.006 | inactive: -0.032 | inactive: -0.02 | inactive: 0.031 | inactive: 0.04 | inactive: -0.062 | inactive: 0.029 | inactive: -0.021 | inactive: -0.029 | inactive: -0.048 | inactive: 0.002 | inactive: -0.015 | inactive: 0.016 | inactive: 0.018 | inactive: 0.086 | inactive: -0.014
CHMP6 (UniProt Q96FZ7) | inactive: -0.044 | inactive: 0.004 | inactive: -0.025 | inactive: -0.024 | inactive: -0.057 | inactive: -0.019 | inactive: 0.048 | inactive: 0.011 | inactive: 0.014 | inactive: 0.017 | inactive: -0.055 | inactive: 0.007 | inactive: 0.029 | inactive: -0.014 | inactive: 0.019 | inactive: -0.048 | inactive: 0.017 | inactive: -0.019 | inactive: -0.123 | inactive: 0.014
CIB1 isoform 2 (UniProt Q99828) | inactive: 0.044 | inactive: -0.107 | inactive: 0.049 | inactive: -0.057 | inactive: 0.272 | inactive: 0.039 | inactive: 0.026 | inactive: 0.03 | inactive: 0.09 | inactive: 0.096 | inactive: -0.118 | inactive: 0.008 | inactive: -0.016 | inactive: -0.095 | inactive: 0.041 | inactive: 0.001 | inactive: 0.048 | inactive: 0.072 | inactive: -0.025 | inactive: -0.073
CLPB isoform 2 (UniProt Q9H078) | inactive: -0.103 | inactive: 0.147 | inactive: -0.007 | inactive: -0.066 | inactive: -0.144 | inactive: 0.015 | inactive: 0.054 | inactive: -0.004 | inactive: 0.036 | inactive: 0 | inactive: -0.006 | inactive: -0.115 | inactive: -0.119 | inactive: 0.028 | inactive: 0.022 | inactive: 0.098 | inactive: 0.011 | inactive: -0.005 | inactive: -0.009 | inactive: -0.029
CNOT9 isoform 2 (UniProt Q92600) | inactive: 0.057 | inactive: 0.06 | inactive: 0 | inactive: -0.027 | inactive: -0.032 | inactive: -0.016 | inactive: -0.024 | inactive: -0.037 | inactive: -0.107 | inactive: -0.012 | inactive: -0.047 | inactive: 0.061 | inactive: -0.046 | inactive: -0.033 | inactive: 0.061 | inactive: -0.007 | inactive: 0.044 | inactive: 0.035 | inactive: 0.023 | inactive: -0.039
CLCN3 (UniProt P51790) | inactive: -0.112 | inactive: -0.022 | inactive: -0.007 | inactive: 0.04 | inactive: 0.019 | inactive: -0.027 | inactive: 0.03 | inactive: 0.049 | inactive: 0.015 | inactive: 0.024 | inactive: -0.019 | inactive: -0.099 | inactive: -0.264 | inactive: -0.078 | inactive: -0.012 | inactive: -0.022 | inactive: 0.011 | inactive: 0.011 | inactive: 0.038 | inactive: -0.01
CKS1B (UniProt P61024) | inactive: -0.065 | inactive: -0.06 | inactive: 0.14 | inactive: -0.016 | inactive: 0 | inactive: 0.026 | inactive: 0.067 | inactive: 0.017 | inactive: -0.043 | inactive: 0.056 | inactive: -0.029 | inactive: -0.03 | inactive: -0.082 | inactive: 0.042 | inactive: -0.02 | inactive: 0.025 | inactive: 0.009 | inactive: 0.063 | inactive: -0.084 | inactive: -0.067
CLASP2 isoform 3 (UniProt O75122) | inactive: 0.016 | inactive: 0.058 | inactive: -0.067 | active: -0.279 | inactive: -0.175 | inactive: -0.188 | inactive: 0.013 | inactive: 0.012 | inactive: -0.089 | inactive: 0.022 | inactive: 0.018 | inactive: -0.018 | inactive: -0.147 | inactive: -0.036 | inactive: 0.02 | inactive: 0.069 | inactive: 0.09 | inactive: -0.033 | inactive: -0.153 | inactive: -0.055
CLINT1 isoform 3 (UniProt Q14677) | inactive: 0.024 | inactive: -0.083 | inactive: 0.042 | inactive: 0.037 | active: 0.264 | inactive: -0.026 | inactive: -0.071 | inactive: -0.083 | inactive: 0.017 | inactive: 0.045 | inactive: 0.106 | inactive: -0.027 | inactive: 0.078 | inactive: 0.058 | inactive: -0.052 | inactive: -0.035 | inactive: -0.048 | inactive: 0.008 | inactive: 0.024 | inactive: 0.015
CLIC4 (UniProt Q9Y696) | inactive: -0.054 | inactive: -0.004 | inactive: -0.002 | inactive: -0.053 | inactive: -0.036 | inactive: -0.025 | inactive: 0.04 | inactive: -0.006 | inactive: 0 | inactive: 0.084 | inactive: -0.032 | inactive: -0.018 | inactive: -0.02 | inactive: -0.069 | inactive: -0.004 | inactive: -0.031 | inactive: 0.046 | inactive: 0.019 | inactive: -0.061 | inactive: 0.006
